For 24 compounds, survivor count and T/C results are on record in PubChem BioAssay AID256 (DTP/NCI, 2004).

This test has as its system CD2F1 mice, L1210 leukemia ip, survival T/C. In words: NCI In Vivo Anticancer Drug Screen. Data for tumor model L1210 Leukemia (intraperitoneal) in CD2F1 (CDF1) mice. Conditions: higher T/C = longer survival. The method in brief: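 Tumor-bearing mice (transplanted tumor) were split into treated and vehicle control groups, and the measured endpoint of each treated group was divided by that of its vehicle controls.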

Setting [1] is: T/C endpoint: mean survival time, dose: 200.0 mg/kg/injection, schedule: Q01DX009 (ip), vehicle: saline with Tween-80.
Where [2] appears, read: T/C endpoint: mean survival time, dose: 100.0 mg/kg/injection, schedule: Q01DX005 (ip), vehicle: other.
Setting [3] is: T/C endpoint: mean survival time, dose: 200.0 mg/kg/injection, schedule: Q01DX005 (ip), vehicle: other.
Where [4] appears, read: T/C endpoint: mean survival time, dose: 400.0 mg/kg/injection, schedule: Q01DX009 (ip), vehicle: saline.
Setting [5] is: T/C endpoint: mean survival time, dose: 100.0 mg/kg/injection, schedule: Q01DX009 (ip), vehicle: saline with Tween-80.
Setting [6] is: T/C endpoint: mean survival time, dose: 400.0 mg/kg/injection, schedule: Q04DX003 (ip), vehicle: saline with Tween-80.
Where [7] appears, read: T/C endpoint: median survival time, dose: 400.0 mg/kg/injection, schedule: Q01DX009 (ip), vehicle: saline with Tween-80.

The list is a part of this screen's results and no random one: it gathers tests that were run many times, whatever their T/C, doses with no T/C, and many T/C values between a quarter and a half above the control. Further doses and runs are listed elsewhere. T/C gives the treated animals as a percentage of the vehicle group. Some doses have a count of surviving animals in place of a T/C: the source files T/C as zero there, which appears to mark a toxic dose or a test without result, not a measured value. Some doses without a T/C left all or most animals alive at the check, yet need not have been tolerated: the source hardly ever lists a survival T/C far under the control, and the zero likely stands for such cases as well. Counts of survivors are from the toxicity check (mostly the fifth day) where no day follows; animals may have died later. Schedules are NCI's codes, taken here to give the interval after Q, in days (D) or hours (H), and the number of doses after X. Where survival is the endpoint, the PubChem record calls one and a half times the control and up active, and a quarter to a half above the control has no call in these data; cut-offs in other NCI protocols can differ. Some T/C values are followed by the survivors on the day toxicity was checked, most often the fifth; where none is given, no animal had died by that day. Some doses were run more than once; their values stand side by side, smallest first. Some schedules carry Z or #; the key to these is not given.

Turning to `CN(C)/N=C(\CBr)c1ccccc1`, the survivor count is listed as 0 of 6 (T/C endpoint: mean survival time, dose: 200.0 mg/kg/injection, schedule: Q01DX009 (ip), vehicle: saline sonified) and 1 of 6 (T/C endpoint: mean survival time, dose: 400.0 mg/kg/injection, schedule: Q01DX001 (ip), vehicle: saline).

Take `OCC1OC(n2cnc3c(=S)nc(NO)[nH]c32)C(O)C1O` (stereo not drawn): the T/C was 137 % of control (T/C endpoint: mean survival time, dose: 25.0 mg/kg/injection, schedule: Q01DX005 (ip), vehicle: saline with Tween-80) and 129 % of control (T/C endpoint: mean survival time, dose: 50.0 mg/kg/injection, schedule: Q01DX005 (ip), vehicle: saline with Tween-80).

As to `Nc1ccc(-c2ccc(N)cc2O)c(O)c1`, the survivor count under setting [1] is 1 of 3.

On to `O=c1[nH]cnc2c1ncn2C1OC(CO)C(O)C1O.[Ag+]` (stereo not drawn), for which the survivor count is, setting by setting: under setting [2], 0 of 6; under setting [3], 0 of 6.

Consider `NCCc1ccc(O)c(O)c1`, for which the T/C was 127 % of control (T/C endpoint: mean survival time, dose: 200.0 mg/kg/injection, schedule: Q01DX009 (ip), vehicle: saline); 133 % of control under setting [4]; 136 % of control (T/C endpoint: mean survival time, dose: 800.0 mg/kg/injection, schedule: Q01DX009 (ip), vehicle: saline); 130 and 137 % of control [6 of 7 alive] (T/C endpoint: median survival time, dose: 200.0 mg/kg/injection, schedule: Q01DX009 (ip), vehicle: saline); 128 % of control [6 of 7 alive] (T/C endpoint: median survival time, dose: 300.0 mg/kg/injection, schedule: Q01DX009 (ip), vehicle: saline); 132 and 132 % of control [4 of 6 alive] (T/C endpoint: median survival time, dose: 400.0 mg/kg/injection, schedule: Q01DX009 (ip), vehicle: saline).

Turning to `O=NN(CCBr)C(=O)Nc1ccccc1`, the T/C was 146 % of control (T/C endpoint: mean survival time, dose: 12.0 mg/kg/injection, schedule: Q01DX Z (ip), vehicle: carboxymethylcellulose (CMC)) and 140 % of control (T/C endpoint: mean survival time, dose: 50.0 mg/kg/injection, schedule: Q01DX Z (ip), vehicle: carboxymethylcellulose (CMC)).

On to `CC(C)(C)CC(C)(C)c1ccc(OCCOC(=O)c2ccccc2C(=O)O)cc1`, for which the survivor count by setting is: (T/C endpoint: mean survival time, dose: 200.0 mg/kg/injection, schedule: Q01DX001 (ip), vehicle: Klucel (hydroxypropylcellulose) (HPC)) 3 of 6; (T/C endpoint: mean survival time, dose: 400.0 mg/kg/injection, schedule: Q01DX001 (ip), vehicle: Klucel (hydroxypropylcellulose) (HPC)) 0 of 6.

Take `CCc1ccc(C)[nH]c1=S`: the survivor count (T/C endpoint: mean survival time, dose: 400.0 mg/kg/injection, schedule: Q01DX001 (ip), vehicle: saline with Tween-80) is 3 of 6.

In the case of `CCOC(=O)C(=O)Nc1cc(C)ccc1C`, the survivor count (T/C endpoint: mean survival time, dose: 50.0 mg/kg/injection, schedule: Q01DX009 (ip), vehicle: saline with Tween-80) is recorded as 6 of 6; the survivor count under setting [5] is listed as 6 of 6; the survivor count under setting [1] is given as 6 of 6.

For the compound `CC(=Nc1ccccc1)C1=C(O)C(Cc2ccccc2)NC1=O` (stereo not drawn), the T/C runs as follows: under setting [5], 129 % of control; under setting [1], 126 and 134 % of control. The survivor count (T/C endpoint: mean survival time, dose: 400.0 mg/kg/injection, schedule: Q01DX009 (ip), vehicle: saline with Tween-80) was 3 of 6.

Regarding `CC1[N-]CCC[N-]CCC[N-]C(C)C2CCCC1[N-]2.[Ni+2].[O-][Cl+3]([O-])([O-])O` (stereo not drawn), the survivor count by setting is: (T/C endpoint: mean survival time, dose: 200.0 mg/kg/injection, schedule: Q04DX002 (ip), vehicle: saline with Tween-80) 0 of 3; (T/C endpoint: mean survival time, dose: 400.0 mg/kg/injection, schedule: Q04DX002 (ip), vehicle: saline with Tween-80) 0 of 3.

Take `Nc1nc(-c2ccccc2)c(CCCNc2ccc(C(=O)NC(CCC(=O)O)C(=O)O)cc2)c(=O)[nH]1` (stereo not drawn): the survivor count under setting [4] is given as 6 of 6.

On to `O=C(O)COc1cccc(OCC(=O)O)c1`, for which the T/C under setting [6] was 126 % of control.

`CCCCNc1c(C(=O)N2CCCCC2)cnc2c1cnn2CC`: the survivor count (T/C endpoint: mean survival time, dose: 400.0 mg/kg/injection, schedule: Q04DX003 (ip), vehicle: saline) was 0 of 3.

As for `CC(CNC1CCCCC1)OC(=O)c1ccc(N(C)C)cc1` (stereo not drawn), the survivor count (T/C endpoint: mean survival time, dose: 300.0 mg/kg/injection, schedule: Q01DX001 (ip), vehicle: saline) is 2 of 6.

As to `COC(=O)C12OCC34C(CC5C(C)C6=CC(=O)OC6=CC5(C)C3C(O)C1O)OC(=O)C(O)C24` (stereo not drawn), the T/C was 135 % of control (T/C endpoint: median survival time, dose: 0.43 mg/kg/injection, schedule: Q01DX005 (ip), vehicle: Klucel (hydroxypropylcellulose) (HPC)); 143 % of control (T/C endpoint: median survival time, dose: 0.72 mg/kg/injection, schedule: Q01DX005 (ip), vehicle: Klucel (hydroxypropylcellulose) (HPC)); 127 % of control (T/C endpoint: median survival time, dose: 1.0 mg/kg/injection, schedule: Q01DX005 (ip), vehicle: Klucel (hydroxypropylcellulose) (HPC)); 125 % of control (T/C endpoint: median survival time, dose: 1.2 mg/kg/injection, schedule: Q01DX005 (ip), vehicle: Klucel (hydroxypropylcellulose) (HPC)); 128 and 130 % of control [5 of 6 alive] (T/C endpoint: median survival time, dose: 2.0 mg/kg/injection, schedule: Q01DX005 (ip), vehicle: Klucel (hydroxypropylcellulose) (HPC)); 142 % of control (T/C endpoint: median survival time, dose: 3.33 mg/kg/injection, schedule: Q01DX005 (ip), vehicle: Klucel (hydroxypropylcellulose) (HPC)). Further, the survivor count (T/C endpoint: median survival time, dose: 4.0 mg/kg/injection, schedule: Q01DX005 (ip), vehicle: Klucel (hydroxypropylcellulose) (HPC)) is reported as 3 of 6.

On to `CCC[CH2][Sn]1([CH2]CCC)[O]CC2OC(n3cc(C)c(=O)[nH]c3=O)CC2[O]1` (stereo not drawn), for which the survivor count is given as 3 of 6 (T/C endpoint: mean survival time, dose: 6.25 mg/kg/injection, schedule: Q01DX005 (ip), vehicle: other); 0 of 6 (T/C endpoint: mean survival time, dose: 12.5 mg/kg/injection, schedule: Q01DX005 (ip), vehicle: other); 0 of 6 (T/C endpoint: mean survival time, dose: 25.0 mg/kg/injection, schedule: Q01DX005 (ip), vehicle: other); 0 of 6 (T/C endpoint: mean survival time, dose: 50.0 mg/kg/injection, schedule: Q01DX005 (ip), vehicle: other); 0 of 6 under setting [2]; 0 of 6 under setting [3].

`C=C1C(=O)OC2CC(C)C3C(O)C(O)C(O)C3(C)CC12` (stereo not drawn): the survivor count under setting [6] is listed as 3 of 6.

Consider `CCS(=O)(=O)OC1CCCCCCC1NC(=O)c1ccccc1` (stereo not drawn), for which the survivor count by setting is: under setting [1], 1 of 6; under setting [6], 2 of 6.

As for `Nc1nc(N)c2cc(CNc3ccc(C(=O)NC(CC(=O)O)CC(=O)O)cc3)ccc2n1`, for the setting “T/C endpoint: mean survival time, dose: 25.0 mg/kg/injection, schedule: Q01DX009 (ip), vehicle: Klucel (hydroxypropylcellulose) (HPC)”, the T/C is 148 % of control.

Consider `Cc1cccc(OCC(=O)O)c1`, for which the survivor count under setting [6] was 0 of 6.

Consider `CC(O)(P(=O)(O)O)P(=O)(O)O.[NH-]CC[NH-].[NH-]CC[NH-].[Pd+2].[Pd+2]`, for which the survivor count (T/C endpoint: mean survival time, dose: 200.0 mg/kg/injection, schedule: Q04DX003 (ip), vehicle: water) is 2 of 6.

As for `Nc1ccc2ccc(NS(=O)(=O)N3CCCCC3)cc2c1`, the T/C (T/C endpoint: median survival time, dose: 200.0 mg/kg/injection, schedule: Q01DX009 (ip), vehicle: saline with Tween-80) was 125, 143, 145 % of control. Besides, under setting [7], the T/C was 142 % of control [5 of 6 alive] and the survivor count is on record as 2 of 6.

Regarding `CNC(=O)O/N=C(\CN=[N+]=[N-])C(C)(C)C`, the survivor count (T/C endpoint: median survival time, dose: 2.0 mg/kg/injection, schedule: Q01DX009 (ip), vehicle: saline) was 1 of 6.
